The source of these data is PubChem BioAssay AID248 (DTP/NCI, 2004).

The list shows only some results of the screen, not a fair sample: it gathers tests that were run many times, whatever their T/C, doses with no T/C, and many T/C values between a quarter and a half above the control. Further doses and runs are listed elsewhere. T/C is the treated group as % of the vehicle group. Some doses have a count of surviving animals in place of a T/C: the source files T/C as zero there, which appears to mark a toxic dose or a test without result, not a measured value. Some survivor counts are full or nearly so, which does not show that the dose was tolerated: the source hardly ever lists a survival T/C far under the control, and the zero likely stands for such cases as well. Counts of survivors are from the toxicity check (mostly the fifth day) where no day follows; animals may have died later. Schedules are NCI's codes, taken here to give the interval after Q, in days (D) or hours (H), and the number of doses after X. Some schedules carry Z or #; the key to these is not given. For survival time, this PubChem deposit counts one and a half times the control or more as active, and values a quarter to a half above the control carry no call in these data; other NCI protocols may use other cut-offs. Some T/C values carry the count of animals alive at the toxicity check (mostly the fifth day); without a count, all were alive then.

This assay has as its system L1210 leukemia ip in BDF1 mice, survival T/C. Kind of assay: NCI In Vivo Anticancer Drug Screen. Data for tumor model L1210 Leukemia (intraperitoneal) in B6D2F1 (BDF1) mice. The conditions noted are these: T/C endpoint: mean survival time, higher T/C = longer survival.
Where [1] appears, read: dose: 200.0 mg/kg/injection, schedule: Q04DX003 (ip), vehicle: saline.
[2] abbreviates: dose: 200.0 mg/kg/injection, schedule: Q01DX009 (ip), vehicle: saline with Tween-80.

Regarding `COc1cc(C(=O)NCC2(C)OC3(OC(=O)C2O)C(=O)N/C(=C(\C=O)C(C)=O)OC3C(O)C2CN2C(C)=O)c2cccc(C)c2c1` (stereo not drawn), the T/C runs as follows: (dose: 0.03 mg/kg/injection, schedule: Q03DX005 (ip), vehicle: clinical formulation) 137 % of control; (dose: 0.07 mg/kg/injection, schedule: Q03DX005 (ip), vehicle: clinical formulation) 135 % of control; (dose: 0.1 mg/kg/injection, schedule: Q07DX003 (ip), vehicle: clinical formulation) 144 % of control; (dose: 0.2 mg/kg/injection, schedule: Q01DX001 (ip), vehicle: clinical formulation) 128 % of control; (dose: 0.2 mg/kg/injection, schedule: Q01DX015 (oral), vehicle: clinical formulation) 127 % of control; (dose: 0.4 mg/kg/injection, schedule: Q01DX015 (oral), vehicle: clinical formulation) 126 % of control [5 of 6 alive]. Also, the T/C reads like this: (dose: 12.5 micrograms/kg/injection, schedule: Q01DX015 (ip), vehicle: clinical formulation) 140 % of control; (dose: 12.5 micrograms/kg/injection, schedule: Q01DX015 (sc), vehicle: clinical formulation) 128 % of control; (dose: 13.0 micrograms/kg/injection, schedule: Q01DX Z (ip), vehicle: saline) 131 % of control; (dose: 15.0 micrograms/kg/injection, schedule: Q03DX005 (ip), vehicle: clinical formulation) 130 % of control; (dose: 25.0 micrograms/kg/injection, schedule: Q01DX015 (ip), vehicle: clinical formulation) 147 % of control; (dose: 25.0 micrograms/kg/injection, schedule: Q01DX015 (sc), vehicle: clinical formulation) 142 % of control. Moreover, the T/C is 132 % of control [4 of 6 alive] (dose: 25.0 micrograms/kg/injection, schedule: Q01DX045 (ip), vehicle: clinical formulation); 146 % of control (dose: 25.0 micrograms/kg/injection, schedule: Q01DX Z (ip), vehicle: saline); 129 % of control (dose: 50.0 micrograms/kg/injection, schedule: Q01DX015 (ip), vehicle: clinical formulation); 146 % of control (dose: 50.0 micrograms/kg/injection, schedule: Q01DX015 (sc), vehicle: clinical formulation); 128 % of control [5 of 6 alive] (dose: 50.0 micrograms/kg/injection, schedule: Q01DX045 (ip), vehicle: clinical formulation); 128 % of control (dose: 50.0 micrograms/kg/injection, schedule: Q07DX003 (ip), vehicle: clinical formulation). The T/C is, setting by setting: (dose: 100.0 micrograms/kg/injection, schedule: Q01DX015 (sc), vehicle: clinical formulation) 145 % of control; (dose: 100.0 micrograms/kg/injection, schedule: Q01DX045 (ip), vehicle: clinical formulation) 140 % of control [5 of 6 alive]. Also, the survivor count is reported as 3 of 6 (dose: 0.06 mg/kg/injection, schedule: Q#B X045 (ip), vehicle: clinical formulation); 0 of 6 (dose: 0.13 mg/kg/injection, schedule: Q#B X045 (ip), vehicle: clinical formulation); 0 of 6 (dose: 0.26 mg/kg/injection, schedule: Q#B X045 (ip), vehicle: clinical formulation); 2 of 6 (dose: 0.3 mg/kg/injection, schedule: Q03DX005 (ip), vehicle: clinical formulation); 6 of 6 (dose: 0.4 mg/kg/injection, schedule: Q07DX003 (ip), vehicle: clinical formulation); 0 of 6 (dose: 0.8 mg/kg/injection, schedule: Q01DX001 (ip), vehicle: clinical formulation). Besides, the survivor count by setting is: (dose: 0.8 mg/kg/injection, schedule: Q07DX003 (ip), vehicle: clinical formulation) 1 of 6; (dose: 100.0 micrograms/kg/injection, schedule: Q01DX Z (ip), vehicle: saline) 6 of 6.

`CCCCN(C)N=Nc1ccc(CCCC(=O)OCC)cc1`: the T/C by setting is: (dose: 50.0 mg/kg/injection, schedule: Q01DX009 (ip), vehicle: saline) 126 % of control; (dose: 75.0 mg/kg/injection, schedule: Q01DX009 (ip), vehicle: saline) 132 % of control; (dose: 187.5 mg/kg/injection, schedule: Q01DX009 (ip), vehicle: saline) 128 % of control; under setting [1], 138 % of control. Besides, the survivor count (dose: 200.0 mg/kg/injection, schedule: Q01DX009 (ip), vehicle: saline) is on record as 5 of 6 and the survivor count (dose: 400.0 mg/kg/injection, schedule: Q04DX003 (ip), vehicle: saline) is recorded as 3 of 6.

Regarding `COc1ccc(-c2csc(-c3ccccc3)n2)cc1N=Cc1ccc(N(CCCl)CCCl)c(OC)c1`, the T/C runs as follows: (dose: 2.2 mg/kg/injection, schedule: Q01DX009 (ip), vehicle: saline) 129 % of control; (dose: 3.3 mg/kg/injection, schedule: Q01DX009 (ip), vehicle: saline) 129 % of control; (dose: 5.0 mg/kg/injection, schedule: Q01DX009 (ip), vehicle: acetone) 134 % of control; (dose: 13.0 mg/kg/injection, schedule: Q01DX015 (ip), vehicle: carboxymethylcellulose (CMC)) 130 % of control; (dose: 20.0 mg/kg/injection, schedule: Q01DX015 (ip), vehicle: carboxymethylcellulose (CMC)) 136 % of control; (dose: 44.0 mg/kg/injection, schedule: Q01DX015 (ip), vehicle: carboxymethylcellulose (CMC)) 131 % of control. Also, the T/C reads like this: (dose: 44.4 mg/kg/injection, schedule: Q01DX001 (ip), vehicle: carboxymethylcellulose (CMC)) 125 % of control; (dose: 66.6 mg/kg/injection, schedule: Q01DX001 (ip), vehicle: carboxymethylcellulose (CMC)) 127 % of control; (dose: 100.0 mg/kg/injection, schedule: Q01DX001 (ip), vehicle: carboxymethylcellulose (CMC)) 131 % of control; (dose: 100.0 mg/kg/injection, schedule: Q01DX001 (sc), vehicle: carboxymethylcellulose (CMC)) 131 % of control; (dose: 150.0 mg/kg/injection, schedule: Q01DX001 (ip), vehicle: carboxymethylcellulose (CMC)) 137 % of control; (dose: 200.0 mg/kg/injection, schedule: Q01DX001 (sc), vehicle: carboxymethylcellulose (CMC)) 129 % of control. The T/C (dose: 400.0 mg/kg/injection, schedule: Q01DX001 (sc), vehicle: carboxymethylcellulose (CMC)) is 129 % of control. In addition, for the setting “dose: 80.0 mg/kg/injection, schedule: Q01DX009 (ip), vehicle: acetone”, the survivor count is 5 of 6.

As to `O=[N+]([O-])c1ccc2c(c1)N(CCCN1CCN(CCO)CC1)c1ccccc1S2`, for the setting “dose: 50.0 mg/kg/injection, schedule: Q04DX003 (ip), vehicle: saline”, the T/C was 138 % of control [3 of 4 alive]. The survivor count is reported as 0 of 4 (dose: 100.0 mg/kg/injection, schedule: Q04DX003 (ip), vehicle: saline) and 1 of 4 under setting [1].

`COc1c(C)c(C)c(OC(C)=O)c(C)c1COC(C)=O`: the survivor count was 2 of 6 under setting [2] and 1 of 6 (dose: 400.0 mg/kg/injection, schedule: Q01DX009 (ip), vehicle: saline with Tween-80).

In the case of `CC(C)(CCl)COS(=O)(=O)c1ccc(Br)cc1`, under setting [2], the survivor count was 2 of 3.

As for `CS(=O)(=O)CCN(N=O)C(=N)N[N+](=O)[O-]`, the T/C by setting is: (dose: 17.7 mg/kg/injection, schedule: Q01DX Z (ip), vehicle: carboxymethylcellulose (CMC)) 135 % of control; (dose: 26.6 mg/kg/injection, schedule: Q01DX Z (ip), vehicle: carboxymethylcellulose (CMC)) 147 % of control; (dose: 30.0 mg/kg/injection, schedule: Q01DX Z (ip), vehicle: methylcellulose (MC)) 134 % of control; (dose: 60.0 mg/kg/injection, schedule: Q01DX Z (ip), vehicle: methylcellulose (MC)) 132 % of control; (dose: 90.0 mg/kg/injection, schedule: Q01DX Z (ip), vehicle: carboxymethylcellulose (CMC)) 137 % of control; (dose: 90.0 mg/kg/injection, schedule: Q01DX Z (ip), vehicle: methylcellulose (MC)) 127 % of control. Also, the survivor count (dose: 135.0 mg/kg/injection, schedule: Q01DX Z (ip), vehicle: carboxymethylcellulose (CMC)) is on record as 2 of 6.

Take `O=S(=O)(F)c1cc(Cl)c(S)c(Cl)c1`: the survivor count by setting is: (dose: 200.0 mg/kg/injection, schedule: Q01DX009 (ip), vehicle: Klucel (hydroxypropylcellulose) (HPC)) 0 of 6; (dose: 400.0 mg/kg/injection, schedule: Q01DX009 (ip), vehicle: Klucel (hydroxypropylcellulose) (HPC)) 0 of 6.
